Laboratory results reported in publication PMC4607164.
Results are given in words; binding and its absence hold for the method and conditions named. Some entries that bind do so weakly or less than the wild type.

B1: MORF2 (multiple site organellar RNA editing factor 2) (protein, UniProt O22793 1-219)
chain: MALPLSGTRHLTRALLSNVTLMAPPRIPSSVHYGGSRLGCSTRFFSIRCGANRSGSTYSPLNSGSNFSDRPPTEMAPLFPGCDYEHWLIVMDKPGGEGATKQQMIDCYIQTLAKVVGSEEEAKKRIYNVSCERYLGFGCEIDEETSTKLEGLPGVLFVLPDSYVDPENKDYGAELFVNGEIVQRSPERQRRVEPQPQRAQDRPRYNDRTRYSRRRENTR
B2: MORF1 (multiple site organellar RNA editing factor 1) (protein, UniProt O49429 61-419)
chain: FSTRQYKLYKEGDEITEDTVLFEGCDYNHWLITMDFSKEETPKSPEEMVAAYEETCAQGLGISVEEAKQRMYACSTTTYQGFQAIMTEQESEKFKDLPGVVFILPDSYIDPQNKEYGGDKYENGVITHRPPPIQSGRARPRPRFDRSGGGSGGPQNFQRNTQYGQQPPMQGGGGSYGPQQGYATPGQGQGTQAPPPFQGGYNQGPRSPPPPYQAGYNQGQGSPVPPYQAGYNQVQGSPVPPYQGTQSSYGQGGSGNYSQGPQGGYNQGGPRNYNPQGAGNFGPASGAGNLGPAPGAGNPGYGQGYSGPGQEQNQTFPQADQRNRDWNNNNPAGQPGSDQVRSRSIMNLASFFFDILIRH
B3: MORF8 (multiple site organellar RNA editing factor 8) (protein, UniProt Q9LKA5 57-395)
chain: GGLVSVKGLSTQATSSSLNDPNPNWSNRPPKETILLDGCDFEHWLVVVEPPQGEPTRDEIIDSYIKTLAQIVGSEDEARMKIYSVSTRCYYAFGALVSEDLSHKLKELSNVRWVLPDSYLDVRNKDYGGEPFIDGKAVPYDPKYHEEWIRNNARANERNRRNDRPRNNDRSRNFERRRENMAGGPPPQRPPMGGPPPPPHIGGSAPPPPHMGGSAPPPPHMGQNYGPPPPNNMGGPRHPPPYGAPPQNNMGGPRPPQNYGGTPPPNYGGAPPANNMGGAPPPNYGGGPPPQYGAVPPPQYGGAPPQNNNYQQQGSGMQQPQYQNNYPPNRDGSGNPYQG

target: T1, MEF35 (Mitochondrial Editing Factor 35), DYW subgroup PLS-class PPR protein encoded by locus At4g14050 (Arabidopsis thaliana) (UniProt O23266); assay: two-hybrid; GAL4 system (Clontech), yeast PJ69-4A; bait in pGBKT7, prey in pGADT7; drop tests of cultures at OD600 0.1 and 0.3 on SD medium lacking T, L, H, A, in parallel with 2.5 mM 3AT; done at least twice
T1 sequence: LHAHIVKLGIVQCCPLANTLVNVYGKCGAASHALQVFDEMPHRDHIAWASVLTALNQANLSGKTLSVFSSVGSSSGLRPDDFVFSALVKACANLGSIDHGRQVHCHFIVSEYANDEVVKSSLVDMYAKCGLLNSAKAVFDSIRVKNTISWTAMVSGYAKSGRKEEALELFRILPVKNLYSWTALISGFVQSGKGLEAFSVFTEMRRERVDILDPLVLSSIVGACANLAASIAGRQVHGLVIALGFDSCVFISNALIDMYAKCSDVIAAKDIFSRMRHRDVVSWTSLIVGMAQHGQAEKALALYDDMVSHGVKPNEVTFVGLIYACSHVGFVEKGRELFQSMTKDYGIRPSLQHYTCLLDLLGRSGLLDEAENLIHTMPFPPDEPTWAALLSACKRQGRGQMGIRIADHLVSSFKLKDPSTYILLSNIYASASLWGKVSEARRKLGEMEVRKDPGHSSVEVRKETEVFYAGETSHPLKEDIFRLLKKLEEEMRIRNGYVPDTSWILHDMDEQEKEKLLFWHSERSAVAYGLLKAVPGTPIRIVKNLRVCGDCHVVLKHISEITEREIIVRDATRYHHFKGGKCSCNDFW

binding, binds:
B1, B2, B3
